Drawing on paper PMC11142349, this text covers binding for one substance.

Protein sequences, listed by entry. Tags and fused reporters are not part of them.
UniProt P21554: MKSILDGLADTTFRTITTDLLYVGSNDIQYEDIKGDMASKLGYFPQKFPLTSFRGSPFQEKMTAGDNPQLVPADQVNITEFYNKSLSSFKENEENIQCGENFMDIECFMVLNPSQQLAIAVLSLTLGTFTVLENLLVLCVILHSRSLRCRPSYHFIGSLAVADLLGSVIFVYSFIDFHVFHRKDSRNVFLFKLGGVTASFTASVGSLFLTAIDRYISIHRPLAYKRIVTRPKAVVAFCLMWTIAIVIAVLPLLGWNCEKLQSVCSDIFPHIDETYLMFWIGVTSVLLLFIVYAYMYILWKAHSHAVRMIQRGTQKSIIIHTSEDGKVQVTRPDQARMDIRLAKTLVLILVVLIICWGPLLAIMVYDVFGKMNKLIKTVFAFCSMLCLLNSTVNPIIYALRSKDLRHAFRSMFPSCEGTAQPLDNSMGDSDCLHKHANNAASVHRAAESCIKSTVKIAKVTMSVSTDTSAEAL
UniProt P32121: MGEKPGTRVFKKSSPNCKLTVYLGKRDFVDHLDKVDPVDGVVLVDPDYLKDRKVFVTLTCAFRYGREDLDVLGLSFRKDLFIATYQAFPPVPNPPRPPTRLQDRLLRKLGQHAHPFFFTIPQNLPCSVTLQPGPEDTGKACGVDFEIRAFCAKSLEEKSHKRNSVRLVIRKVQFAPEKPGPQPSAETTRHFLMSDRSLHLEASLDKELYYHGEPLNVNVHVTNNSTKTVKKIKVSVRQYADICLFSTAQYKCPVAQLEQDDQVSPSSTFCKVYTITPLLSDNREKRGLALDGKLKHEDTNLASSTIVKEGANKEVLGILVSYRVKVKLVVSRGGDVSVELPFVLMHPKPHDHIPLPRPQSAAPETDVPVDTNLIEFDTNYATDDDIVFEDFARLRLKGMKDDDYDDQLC

For assay [1], the target named is CB1-NlucC (human) (UniProt P21554). The assay is described as follows: FRET or BRET; HEK293-TR cells stably co-expressing CB1-NlucC and NES-venus-mGsi or NES-venus-β-arrestin2; agonists (THC, analogs, 2AG, AEA) added, 37 °C, furimazine 10 μM, HBSS with 0.5% BSA and 5 mM HEPES; responses normalised to 2AG.
For assay [2] the target is unchanged. The assay is described as follows: FRET or BRET; as a2, CB1-NlucC and NES-venus-β-arrestin2, with L759633 as the agonist.
The target is the same in assay [3]. The assay can be described thus: FRET or BRET; as a2, CB1-NlucC and NES-venus-β-arrestin2, with Cannabinol as the agonist. A general note: BRET reads energy transfer from a luciferase to a nearby fluorophore.

No constants are given. Whether binding was seen depends on the method and setting. In cells and extracts the contact can be indirect. Some results given as binding are weak or reduced against the parent protein; the word gives no strength.

For “NES-venus-β-arrestin2 (from UniProt P32121 1-409)”, the binding result is “binds” in the assay with CB1-NlucC (human) [1], “binds weakly” with CB1-NlucC (human) [2] and “no binding (condition: with Cannabinol as the agonist)” with CB1-NlucC (human) [3].
